A short description of this data set: general procedure: solution-phase peptide synthesis; dicyclohexylcarbodiimide / hydroxybenzotriazole. The conditions noted are these: HCl.

Regarding “BOC--Leu--Ser(OBzl)--Arg(NO2)--Leu--Phe--OX”, the step yield (late stage modification step) turned out to be 90%.

Under “late stage modification step”, “HCl, Leu--Ser--Arg--Leu--Phe--Asp--Asn--Ala” came in with a step yield of 92%.

Where the note is “coupling step”, “BOC--Ser (OBzl)--Arg(NO2) --leu--Phe--OMe” returned a step yield of 92%.

As to “BOC--Leu--Ser (OBzl)--Arg(NO2)--Leu--Phe--OMe”, the step yield (coupling step) is 68%.

For the substance “HCl, Ser(OBzl)--Arg(NO2) --Leu--Phe--OMe”, the step yield (late stage modification step) was found to be 81%.

Values taken from patent US4107158A (Choay S.A., priority 1974, dated 1978).
